Laboratory results as given in PubChem BioAssay AID1259415 (National Center for Advancing Translational Sciences (NCATS), 2018).
Among all 410,000 compounds or so, about 18,000 (4.4%) were called active. Inconclusive means that the source gave no clear call. Such entries were picked first, then a sample of the others. Rule as the data show it: active = activity change below about -60%; inconclusive = no clear call, values can overlap the other calls; inactive = above about -39%.

Assay: qHTS Assay for inhibitors of the human cytomegalovirus (HCMV)
Settings: HFF cells, HCMV-luciferase reporter, 72 h; at 57.5 µM; stronger effect = lower value
Procedure, shortened: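 Two-dose cell screen: HFF monolayers treated with compounds and infected with luciferase-expressing HCMV at 1 PFU/cell, 72 h at 37C, then lysed for luciferase measurement.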
% is scaled to controls: 0 for no effect and ±100 for the full control effect.

Question: Which activity change, negative = inhibition does the source give for Cn1cc(SCC(=O)O)c2ccccc21 here?
Answer: Its activity change, negative = inhibition is inactive: 26.6%.

Question: For COC(=O)[C@@]1(Cc2ccc(F)cc2)[C@H]2c3cc(C(=O)N(C)C)n(CCc4ccc(OC)c(Br)c4)c3C[C@H]2CN1C(=O)c1ccccc1, which activity change, negative = inhibition is on record?
Answer: The activity change, negative = inhibition was inconclusive: -48%.

Question: Which activity change, negative = inhibition does the source give for CC(Cc1cccs1)NC(=S)Nc1ccc(F)cc1 (stereo not given) here?
Answer: The activity change, negative = inhibition was inconclusive: -56.4%.

Question: For Nc1ccn([C@@H]2O[C@H](CNC(=O)[C@@H](Cc3cccnc3)NC=O)[C@@H](O)[C@H]2O)c(=O)n1, which activity change, negative = inhibition is on record?
Answer: Its activity change, negative = inhibition is inactive: 8.59%.

Question: With CC(C)COc1cccc(-c2cc(C(=O)N/N=C/c3ccncc3)c3ccccc3n2)c1 as the compound, how does the activity change, negative = inhibition read?
Answer: The activity change, negative = inhibition was inconclusive: -53.8%.

Question: For CC(C)(C)NC(=O)Nc1cccc(Cl)c1Cl, which activity change, negative = inhibition is on record?
Answer: Its activity change, negative = inhibition is inconclusive: -55.8%.

Question: For Cc1cccc(OCC(=O)Nc2ccc(N3CCN(C(=O)c4ccco4)CC3)cc2)c1, which activity change, negative = inhibition is on record?
Answer: Its activity change, negative = inhibition is active: -68.3%.

Question: Which activity change, negative = inhibition does the source give for CC(=O)NNC(=S)NCCc1ccccc1 here?
Answer: The activity change, negative = inhibition was inconclusive: -49.2%.

Question: Which activity change, negative = inhibition does the source give for CCc1ccc(-c2cc(C)no2)cc1S(=O)(=O)NCCCN1CCN(c2ccccc2)CC1 here?
Answer: The activity change, negative = inhibition was inconclusive: -53.4%.

Question: For Cc1cn2c(=O)cc(COC(=O)c3ccc(NC(=O)c4ccc(F)cc4)cc3)nc2s1, which activity change, negative = inhibition is on record?
Answer: Its activity change, negative = inhibition is inconclusive: -42.1%.

Question: For Cc1ccc(CNC(=O)CCc2cn(C)c3ccccc23)cc1, which activity change, negative = inhibition is on record?
Answer: The activity change, negative = inhibition was inconclusive: -45.1%.

Question: With COc1ccc(C(=O)NCc2nnc(SC)n2C2CCCCC2)cc1 as the compound, how does the activity change, negative = inhibition read?
Answer: Its activity change, negative = inhibition is inconclusive: -56.7%.

Question: With CCOc1ccc(NC(=S)NC(=O)c2cccnc2)c([N+](=O)[O-])c1 as the compound, how does the activity change, negative = inhibition read?
Answer: Its activity change, negative = inhibition is inactive: 3.82%.

Question: For COc1ccccc1C(=O)NC1CCN(C(=O)Nc2ccc(F)cc2)CC1, which activity change, negative = inhibition is on record?
Answer: The activity change, negative = inhibition was inactive: 7.3%.

Question: Which activity change, negative = inhibition does the source give for CCn1ncc(/C=C/C(=O)Nc2c(C)nn(Cc3ccc(Cl)cc3Cl)c2C)c1C here?
Answer: Its activity change, negative = inhibition is active: -103%.

Question: For N#CCCCn1c(O)c(N=NC(=O)C(O)c2ccccc2)c2ccccc21 (stereo not given), which activity change, negative = inhibition is on record?
Answer: Its activity change, negative = inhibition is inconclusive: -44%.

Question: With CCS(=O)(=O)c1ncc(Cl)c(C(=O)N2CCN(c3ccc(OC)cc3)CC2)n1 as the compound, how does the activity change, negative = inhibition read?
Answer: Its activity change, negative = inhibition is active: -98.6%.

Question: Which activity change, negative = inhibition does the source give for Cc1cccc(CN2C(=O)c3ccccc3Sc3ccc(C(=O)NCc4ccco4)cc32)c1 here?
Answer: Its activity change, negative = inhibition is active: -73%.

Question: Which activity change, negative = inhibition does the source give for Cc1ccc(S(=O)(=O)N2[C@@H](Cc3ccccc3)CO[C@H]2CC(=O)c2cccs2)cc1 here?
Answer: The activity change, negative = inhibition was inactive: 44.4%.

Question: Which activity change, negative = inhibition does the source give for Cc1cccc(-c2cc(C(=O)Nc3sc(C)c(C)c3C(N)=O)c3ccccc3n2)c1 here?
Answer: Its activity change, negative = inhibition is inactive: 1.98%.

Question: With Cc1cc(=O)oc2c(CN3CCN(C)CC3)c(O)c(Cl)cc12 as the compound, how does the activity change, negative = inhibition read?
Answer: The activity change, negative = inhibition was active: -102%.

Question: For COc1ccc2c(CNCCc3ccc(SC)cc3)c(C(=O)O)n(Cc3ccc(F)cc3)c2c1, which activity change, negative = inhibition is on record?
Answer: Its activity change, negative = inhibition is active: -74.3%.

Question: With Cc1ccc2cc(/C=N/NC(=O)c3ccccc3[N+](=O)[O-])c(Cl)nc2c1 as the compound, how does the activity change, negative = inhibition read?
Answer: The activity change, negative = inhibition was inactive: -9.54%.

Question: With Cc1nc(-c2ccc(S(=O)(=O)Nc3cc(Cl)ccc3C)cc2)co1 as the compound, how does the activity change, negative = inhibition read?
Answer: The activity change, negative = inhibition was inactive: 29.5%.

Question: With CCN(CC)c1ccc2cc(S(=O)(=O)c3ccc(Cl)cc3)c(=O)oc2c1 as the compound, how does the activity change, negative = inhibition read?
Answer: The activity change, negative = inhibition was inconclusive: -40.4%.

Question: Which activity change, negative = inhibition does the source give for COc1ccc2oc3cc(C)[n+]([O-])c(-c4ccc(C)cc4)c3c2c1 here?
Answer: Its activity change, negative = inhibition is active: -92.9%.

Question: Which activity change, negative = inhibition does the source give for CN(C)c1cc[n+](CC(=O)c2ccc(OC(F)F)cc2)cc1 here?
Answer: The activity change, negative = inhibition was inconclusive: -54.2%.

Question: For CC(=O)c1cccc(NC(=O)C2CCN(c3ncnc4c3nc3n4CCCCC3)CC2)c1, which activity change, negative = inhibition is on record?
Answer: Its activity change, negative = inhibition is inconclusive: -47.8%.

Question: Which activity change, negative = inhibition does the source give for Cc1cc(C(=O)OCC(=O)Nc2ccccc2Br)c(C)o1 here?
Answer: Its activity change, negative = inhibition is inconclusive: -40.6%.

Question: For CCOC(=O)C1(Cc2cccc(Cl)c2)CCCN(C(=O)CCSC)C1 (stereo not given), which activity change, negative = inhibition is on record?
Answer: The activity change, negative = inhibition was inactive: 1.01%.

Question: Which activity change, negative = inhibition does the source give for Cc1cc(=O)c2cc(Br)ccc2[nH]1 here?
Answer: The activity change, negative = inhibition was inconclusive: -57.3%.

Question: Which activity change, negative = inhibition does the source give for C/C(=N\Nc1ccc(S(=O)(=O)N2CCOCC2)cc1[N+](=O)[O-])C(C)C here?
Answer: The activity change, negative = inhibition was inconclusive: -51.5%.

Question: For COc1ccc(/C=N/NC(=O)c2ccc3c(c2)OCO3)cc1, which activity change, negative = inhibition is on record?
Answer: The activity change, negative = inhibition was inconclusive: -41.7%.

Question: For OC1(c2ccc(Cl)cc2)CCN(Cc2c[nH]c3ccccc23)CC1, which activity change, negative = inhibition is on record?
Answer: The activity change, negative = inhibition was inconclusive: -48.7%.

Question: With Cc1ccccc1C(O)c1cccnc1 (stereo not given) as the compound, how does the activity change, negative = inhibition read?
Answer: Its activity change, negative = inhibition is active: -60.7%.

Question: With COc1ccc(/C=C/C(=O)OCC(=O)c2c(C)[nH]c3ccccc23)cc1OC as the compound, how does the activity change, negative = inhibition read?
Answer: Its activity change, negative = inhibition is inactive: 0.909%.

Question: For CC(C(=O)N(C)C1CCS(=O)(=O)C1)N1C(=O)/C(=C/c2ccc(F)cc2)SC1=S (stereo not given), which activity change, negative = inhibition is on record?
Answer: The activity change, negative = inhibition was inconclusive: -50%.

Question: For CSC[C@H](NC(=O)COc1cc2c(c3oc(=O)c(C)c(C)c13)CCC(C)(C)O2)C(=O)O, which activity change, negative = inhibition is on record?
Answer: The activity change, negative = inhibition was inconclusive: -45.1%.

Question: Which activity change, negative = inhibition does the source give for COc1ccc(NS(=O)(=O)c2ccc(OC)c(NC(=O)CCC3CCCC3)c2)cc1 here?
Answer: The activity change, negative = inhibition was inconclusive: -43.8%.

Question: With COc1ccc(OC)c(S(=O)(=O)NCCc2csc(-c3cccnc3)n2)c1 as the compound, how does the activity change, negative = inhibition read?
Answer: The activity change, negative = inhibition was inactive: 0%.

Question: For Clc1ccc(N(CC2CO2)CC2CO2)cc1 (stereo not given), which activity change, negative = inhibition is on record?
Answer: Its activity change, negative = inhibition is inactive: -31.6%.

Question: With CC(=O)Nc1cccc(-c2ccnc3c2CC(C)(C(=O)NCc2ccco2)O3)c1 (stereo not given) as the compound, how does the activity change, negative = inhibition read?
Answer: The activity change, negative = inhibition was inconclusive: -42.4%.

Question: Which activity change, negative = inhibition does the source give for O=C(/C=C/c1ccc(Cl)cc1)NC1CCS(=O)(=O)C1 (stereo not given) here?
Answer: The activity change, negative = inhibition was inconclusive: -57.3%.

Question: Which activity change, negative = inhibition does the source give for COc1ccc(CCN2C(=O)CSC2=Nc2ccc(C(C)C)cc2)cc1OC here?
Answer: Its activity change, negative = inhibition is inconclusive: -53%.

Question: With Cc1cc(C)cc(OCCSc2nc3ccc(NC(=O)c4cccs4)cc3s2)c1 as the compound, how does the activity change, negative = inhibition read?
Answer: The activity change, negative = inhibition was inactive: -22.2%.

Question: For CCOc1ccc(C(=O)Nc2c(C(=O)Nc3ccccc3OC)oc3ccccc23)cc1OCC, which activity change, negative = inhibition is on record?
Answer: The activity change, negative = inhibition was inactive: 41.1%.

Question: Which activity change, negative = inhibition does the source give for O=C(COc1ccc(Cl)cc1Cl)NCc1ccco1 here?
Answer: The activity change, negative = inhibition was inconclusive: -54.3%.

Question: With CC(C)(C)OC(=O)N1CCN(C(=O)c2[nH]cnc2C(=O)N[C@@H](Cc2ccccc2)C(=O)OCc2ccccc2)CC1 as the compound, how does the activity change, negative = inhibition read?
Answer: Its activity change, negative = inhibition is inconclusive: -47.8%.

Question: With CCc1ccc(/C=C2\SC(=S)N(CCCC(=O)Nc3cc(C)on3)C2=O)cc1 as the compound, how does the activity change, negative = inhibition read?
Answer: The activity change, negative = inhibition was inconclusive: -46.4%.

Question: For Cc1c(C(=O)N2CCC(C)CC2)sc2ncnc(N(C)c3ccccc3)c12, which activity change, negative = inhibition is on record?
Answer: The activity change, negative = inhibition was active: -65.9%.

Question: Which activity change, negative = inhibition does the source give for Cc1ccc(C2CC(c3cccs3)=NN2C(=O)CSc2nc(=O)n3ccc(C)cc3n2)cc1 (stereo not given) here?
Answer: Its activity change, negative = inhibition is inconclusive: -43.2%.

Question: With O=C(CN1CCOCC1)Nc1ccc(Cl)cn1 as the compound, how does the activity change, negative = inhibition read?
Answer: Its activity change, negative = inhibition is inactive: 16.1%.

Question: With COc1cccc(NC(=O)N2CCCC2C(=O)NC2CCCCC2)c1 (stereo not given) as the compound, how does the activity change, negative = inhibition read?
Answer: The activity change, negative = inhibition was inactive: -32.8%.

Question: With C=CCN=C1NC(CCc2ccccc2)C(C(=O)OC)=C(C)N1Cc1cccc(C(F)(F)F)c1 (stereo not given) as the compound, how does the activity change, negative = inhibition read?
Answer: The activity change, negative = inhibition was inconclusive: -51%.

Question: Which activity change, negative = inhibition does the source give for O=C(CN1C(=O)CS/C1=C\c1nc(-c2ccc(Cl)cc2)cs1)Nc1cccnc1Cl here?
Answer: The activity change, negative = inhibition was inconclusive: -40.3%.
